{
  "sequences": {"note": "Chains of the proteins cited; added tags and fusions are not shown. Lines headed by an entry give the natural chain unless they say otherwise; changes in a name come on top.", "UniProt P06239": "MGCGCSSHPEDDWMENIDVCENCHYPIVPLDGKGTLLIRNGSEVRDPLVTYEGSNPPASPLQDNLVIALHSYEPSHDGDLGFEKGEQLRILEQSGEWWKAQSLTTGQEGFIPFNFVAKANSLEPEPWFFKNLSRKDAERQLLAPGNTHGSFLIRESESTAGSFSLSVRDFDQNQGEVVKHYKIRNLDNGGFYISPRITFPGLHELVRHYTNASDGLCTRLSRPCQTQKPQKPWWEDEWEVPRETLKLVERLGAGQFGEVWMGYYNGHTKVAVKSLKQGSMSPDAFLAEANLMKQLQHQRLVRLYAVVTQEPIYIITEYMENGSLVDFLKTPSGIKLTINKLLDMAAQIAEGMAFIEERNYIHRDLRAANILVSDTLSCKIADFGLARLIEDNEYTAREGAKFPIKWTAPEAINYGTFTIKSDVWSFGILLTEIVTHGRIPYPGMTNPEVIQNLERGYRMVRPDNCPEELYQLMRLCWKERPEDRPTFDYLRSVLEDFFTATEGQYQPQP"},
  "source": "the supplement of paper PMC12823440",
  "about": "“Inhibitors supercharge kinase turnover through native proteolytic circuits” (Nature, 2025)",
  "note": "Where a name gives a salt, the structure may show the parent alone. The list shows a part of the results. The calls rarely recur for the same compound in another form.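 Kinases, fused to nanoluciferase, were expressed in K562 cells; luminescence was measured every 4 h from 2 to 18 h as percent of control (DMSO = 100%, positive control = 0%). A time point is decreased if signal falls significantly (2 sigma). Hits were called by the authors by a rule that is not shown; the count of time points alone does not decide it.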",
  "data": [
    {"biological_target": "LCK (UniProt P06239)", "experiment": "number of time points (of 5) at which kinase-Nluc abundance scored as decreased, DMSO-normalised (count); higher = more persistent destabilization", "details": "K562; 2-18 h", "values": [
      {"smiles": "CN1CCN(c2cc(-c3ccncc3)c(-c3ccc4ccccc4c3)nn2)CC1", "note": "(10 µM)", "number of time points": 0},
      {"smiles": "CC(O)(C#Cc1ccc2c(c1)N(c1nc(N)ncc1Cl)CC2)c1nccs1", "note": "(stereo not drawn) (2.5 µM)", "number of time points": 0},
      {"smiles": "COc1ccc(Nc2ncc(C(F)(F)F)c(NC3CC3)n2)cc1OC", "note": "(10 µM)", "number of time points": 0},
      {"smiles": "O=c1cc(N2CCOCC2)oc2c(-c3ccc4c(c3)OCCO4)csc12", "note": "(2.5 µM)", "number of time points": 0},
      {"smiles": "N[C@@H]1CCCN(c2c(/C=C3\\SC(=O)NC3=O)cccc2-c2ccccc2)C1", "note": "(10 µM)", "number of time points": 0},
      {"smiles": "N#Cc1ccc(-c2cnc3[nH]cc(NC(=O)c4cccnc4)c3c2)cc1", "note": "(10 µM)", "number of time points": 0},
      {"smiles": "COc1ccc(Br)cc1NC(=O)Nc1cccc2c1ccn2Cc1ccnc(N)c1", "note": "(2.5 µM)", "number of time points": 0},
      {"smiles": "COc1cc(N2CCOCC2)ccc1Nc1ncc(F)c(Nc2ccccc2NS(C)(=O)=O)n1", "note": "(10 µM)", "number of time points": 0},
      {"smiles": "COc1ccc(-c2cc(=O)c3c(OC)cc(OC)c(OC)c3o2)cc1", "note": "[6-Demethoxytangeretin] (10 µM)", "number of time points": 0},
      {"smiles": "COc1cc2c(cc1O)C[C@H]1c3cc(O)c(OC)cc3CC[N@@+]1(C)C2", "note": "[Phellodendrine] (10 µM)", "number of time points": 0},
      {"smiles": "CO[C@H]1C[C@@H]2CC[C@@H](C)[C@@](O)(O2)C(=O)C(=O)N2CCCC[C@H]2C(=O)O[C@H]([C@H](C)C[C@@H]2CC[C@@H](OC(=O)C(C)(CO)CO)[C@H](OC)C2)CC(=O)[C@H](C)/C=C(\\C)[C@@H](O)[C@@H](OC)C(=O)[C@H](C)C[C@H](C)/C=C/C=C/C=C/1C", "note": "[Temsirolimus] (2.5 µM)", "number of time points": 0},
      {"smiles": "O=C(ON=C1c2ccccc2-c2nc3ccccc3nc21)c1ccco1", "note": "(2.5 µM)", "number of time points": 0},
      {"smiles": "COc1ccc(S(=O)(=O)Nc2cc(-c3c(O)ccc4ccccc34)c(O)c3ccccc23)cc1", "note": "(10 µM)", "number of time points": 0},
      {"smiles": "Cc1cccc(COc2cccc(/C=C3\\C(=O)NN(c4ccccc4)C3=O)c2)c1", "note": "(10 µM)", "number of time points": 0},
      {"smiles": "CC(C)Oc1ccc(F)c(-c2cnc(N)c(C(=O)Nc3cnccc3N3CCC[C@@H](C(=O)O)C3)n2)c1", "note": "(2 µM)", "number of time points": 0},
      {"smiles": "COc1cc(F)ccc1-c1ncnc(Nc2cccc(C[S@](C)(=N)=O)c2)n1", "note": "[Atuveciclib] (2.5 µM)", "number of time points": 0},
      {"smiles": "CC(C)n1ncnc1-c1cn2c(n1)-c1ccc(O[C@@H](C)C(N)=O)cc1OCC2", "note": "(10 µM)", "number of time points": 0},
      {"smiles": "Cn1c(CNc2cccc(C(=O)NCc3ccccc3C(F)(F)F)c2)nnc1-c1ccncc1", "note": "(10 µM)", "number of time points": 0},
      {"smiles": "O=Nc1c(-c2c(O)[nH]c3cc(Br)ccc23)[nH]c2ccccc12", "note": "[GSK 3 Inhibitor IX] (2.5 µM)", "number of time points": 0},
      {"smiles": "Nc1ncc(C(=O)NC2CN(C(=O)C3CC3)C2)c2ccc(-c3cccc(F)c3)nc12", "note": "(2 µM)", "number of time points": 0},
      {"smiles": "O=C(Nc1cc(Cl)cc2c1[nH]c1cnccc12)c1cccnc1", "note": "(10 µM)", "number of time points": 0},
      {"smiles": "c1ccc(Cn2c(-c3ccc(OC[C@H](C4CCNCC4)n4c(-c5ccccc5)nc5ccccc54)cc3)nc3ccccc32)cc1", "note": "[Deltarasin] (2.5 µM)", "number of time points": 0},
      {"smiles": "COc1cc2ncnc(Nc3cccc(I)c3)c2cc1OC", "note": "(2.5 µM)", "number of time points": 0},
      {"smiles": "Clc1ccc(C(c2ccc(Cl)cc2)[n+]2ccn(CC(OCc3ccc(Cl)cc3Cl)c3ccc(Cl)cc3Cl)c2)cc1", "note": "(stereo not drawn) [Calmidazolium chloride] (2.5 µM)", "number of time points": 0},
      {"smiles": "O=C(Nc1cccnc1)c1cc(-c2ccnc(F)c2)ccc1OCc1ccccc1", "note": "(10 µM)", "number of time points": 0},
      {"smiles": "c1nn(C2CCOCC2)cc1Nc1ncc2nnn(-c3ccc4cn[nH]c4c3)c2n1", "note": "(10 µM)", "number of time points": 0},
      {"smiles": "COC(=O)[C@H](CCSC)NC(=O)c1ccc(NC[C@@H](N)CS)cc1-c1ccccc1", "note": "[FTI-277 (hydrochloride)] (10 µM)", "number of time points": 0},
      {"smiles": "Cc1cc(Nc2cc(N)ncn2)c(=O)n2c1C(=O)NC21CCCCC1", "note": "[Tomivosertib] (10 µM)", "number of time points": 0},
      {"smiles": "CCc1c[nH]c2ncnc(N3CC[C@](N)(CNC(=O)c4ccc(F)cc4F)C3)c12", "note": "(10 µM)", "number of time points": 0},
      {"smiles": "Nc1ncnc2c1nc(Br)n2[C@@H]1O[C@@H]2COP(=O)(O)O[C@H]2[C@H]1O", "note": "[8-Bromo-cAMP sodium salt] (10 µM)", "number of time points": 0},
      {"smiles": "CC(C)n1c(=O)n(C)c2cnc3cc(F)c(-c4ccc(OCCCN5CCCCC5)nc4)cc3c21", "note": "(10 µM)", "number of time points": 0},
      {"smiles": "Cc1ccc(C)c(OCCn2cc(C(=O)O)c3ccccc32)c1", "note": "(10 µM)", "number of time points": 0},
      {"smiles": "COCCOc1ccc2c(c1)ncn2-c1ccc2cccc(N3CCC(N)CC3)c2n1", "note": "(10 µM)", "number of time points": 0}
    ]}
  ]
}
